Measured values reported in the supplement of paper PMC10849652.
The other results are listed elsewhere or left out.

Chains of the proteins cited; added tags and fusions are not shown. Lines headed by an entry give the natural chain unless they say otherwise; changes in a name come on top.
UniProt Q99952: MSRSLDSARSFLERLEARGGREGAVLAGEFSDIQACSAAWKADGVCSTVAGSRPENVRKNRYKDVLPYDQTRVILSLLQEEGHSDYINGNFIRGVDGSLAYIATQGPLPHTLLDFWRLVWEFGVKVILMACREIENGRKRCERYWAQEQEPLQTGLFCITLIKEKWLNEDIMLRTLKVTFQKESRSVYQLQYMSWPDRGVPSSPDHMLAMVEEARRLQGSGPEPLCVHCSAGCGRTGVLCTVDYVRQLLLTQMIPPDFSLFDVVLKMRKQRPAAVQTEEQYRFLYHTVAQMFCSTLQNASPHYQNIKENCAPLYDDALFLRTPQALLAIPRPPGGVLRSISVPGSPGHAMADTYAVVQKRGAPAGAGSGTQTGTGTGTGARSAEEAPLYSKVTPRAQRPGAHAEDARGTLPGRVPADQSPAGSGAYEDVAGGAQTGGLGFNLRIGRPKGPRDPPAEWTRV
UniProt P32322: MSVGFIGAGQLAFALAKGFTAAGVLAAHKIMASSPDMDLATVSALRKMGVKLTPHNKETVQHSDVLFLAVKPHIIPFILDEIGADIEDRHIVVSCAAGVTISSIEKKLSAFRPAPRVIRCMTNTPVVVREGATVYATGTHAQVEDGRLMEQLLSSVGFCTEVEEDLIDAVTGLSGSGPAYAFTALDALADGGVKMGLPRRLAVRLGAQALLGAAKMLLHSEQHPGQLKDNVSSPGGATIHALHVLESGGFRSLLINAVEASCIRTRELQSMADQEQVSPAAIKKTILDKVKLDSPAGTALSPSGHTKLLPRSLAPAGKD
UniProt Q15032: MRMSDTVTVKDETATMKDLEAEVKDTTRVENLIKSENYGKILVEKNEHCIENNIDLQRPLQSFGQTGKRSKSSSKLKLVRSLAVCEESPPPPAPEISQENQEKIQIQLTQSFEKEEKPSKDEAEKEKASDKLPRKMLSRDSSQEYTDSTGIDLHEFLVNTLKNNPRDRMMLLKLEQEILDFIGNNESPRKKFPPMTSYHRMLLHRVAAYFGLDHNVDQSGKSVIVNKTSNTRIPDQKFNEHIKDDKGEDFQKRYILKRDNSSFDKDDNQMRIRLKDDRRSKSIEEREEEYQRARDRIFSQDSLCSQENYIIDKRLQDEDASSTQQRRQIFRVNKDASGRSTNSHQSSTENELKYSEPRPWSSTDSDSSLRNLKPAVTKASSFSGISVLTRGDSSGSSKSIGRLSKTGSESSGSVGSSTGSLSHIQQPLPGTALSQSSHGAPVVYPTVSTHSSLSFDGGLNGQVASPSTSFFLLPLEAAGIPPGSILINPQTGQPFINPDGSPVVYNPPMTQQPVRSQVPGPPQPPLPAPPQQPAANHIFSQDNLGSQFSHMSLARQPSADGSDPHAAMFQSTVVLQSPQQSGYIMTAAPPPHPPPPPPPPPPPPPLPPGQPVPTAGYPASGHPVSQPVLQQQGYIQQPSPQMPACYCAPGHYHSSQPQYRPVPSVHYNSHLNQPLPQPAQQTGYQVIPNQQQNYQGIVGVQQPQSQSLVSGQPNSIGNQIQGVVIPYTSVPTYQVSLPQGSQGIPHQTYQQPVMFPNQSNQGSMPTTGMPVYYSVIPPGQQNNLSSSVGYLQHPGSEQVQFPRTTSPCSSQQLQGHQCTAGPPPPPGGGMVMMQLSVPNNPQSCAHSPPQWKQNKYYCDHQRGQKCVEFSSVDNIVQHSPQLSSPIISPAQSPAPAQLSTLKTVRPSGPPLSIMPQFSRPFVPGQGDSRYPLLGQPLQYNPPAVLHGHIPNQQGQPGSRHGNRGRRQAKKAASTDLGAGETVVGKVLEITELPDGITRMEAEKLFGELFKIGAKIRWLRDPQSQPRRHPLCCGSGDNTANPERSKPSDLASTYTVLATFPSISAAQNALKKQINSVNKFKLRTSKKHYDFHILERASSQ
UniProt Q2TAL8: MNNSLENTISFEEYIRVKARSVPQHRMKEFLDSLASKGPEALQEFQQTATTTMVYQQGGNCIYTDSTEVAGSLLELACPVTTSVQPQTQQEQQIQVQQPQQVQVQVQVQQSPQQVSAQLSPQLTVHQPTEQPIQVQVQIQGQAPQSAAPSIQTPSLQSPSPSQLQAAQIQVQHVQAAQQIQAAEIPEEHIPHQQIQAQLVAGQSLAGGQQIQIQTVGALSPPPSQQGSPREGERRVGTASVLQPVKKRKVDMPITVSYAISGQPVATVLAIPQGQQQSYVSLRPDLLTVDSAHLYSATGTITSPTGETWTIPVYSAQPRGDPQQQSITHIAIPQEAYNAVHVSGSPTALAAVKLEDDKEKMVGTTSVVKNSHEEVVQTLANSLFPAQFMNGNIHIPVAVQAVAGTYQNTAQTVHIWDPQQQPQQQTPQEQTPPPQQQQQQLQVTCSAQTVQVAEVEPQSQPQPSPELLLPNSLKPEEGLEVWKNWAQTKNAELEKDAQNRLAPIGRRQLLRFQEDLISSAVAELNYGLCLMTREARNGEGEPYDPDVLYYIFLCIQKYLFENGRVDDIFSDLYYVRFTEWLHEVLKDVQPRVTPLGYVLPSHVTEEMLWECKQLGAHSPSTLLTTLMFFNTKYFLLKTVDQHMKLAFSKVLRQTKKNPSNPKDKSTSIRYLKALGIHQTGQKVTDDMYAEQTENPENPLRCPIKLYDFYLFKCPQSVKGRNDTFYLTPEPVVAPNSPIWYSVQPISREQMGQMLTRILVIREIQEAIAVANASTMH
UniProt Q96PU8: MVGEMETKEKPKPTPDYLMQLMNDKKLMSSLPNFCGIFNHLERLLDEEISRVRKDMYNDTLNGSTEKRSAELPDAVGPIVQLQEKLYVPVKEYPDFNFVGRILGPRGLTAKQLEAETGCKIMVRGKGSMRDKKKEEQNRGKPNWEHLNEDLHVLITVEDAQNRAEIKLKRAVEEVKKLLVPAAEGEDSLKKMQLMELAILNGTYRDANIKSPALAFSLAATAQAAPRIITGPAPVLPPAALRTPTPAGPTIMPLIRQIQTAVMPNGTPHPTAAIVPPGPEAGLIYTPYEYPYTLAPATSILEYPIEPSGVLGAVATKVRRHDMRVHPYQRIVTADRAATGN
UniProt Q13200: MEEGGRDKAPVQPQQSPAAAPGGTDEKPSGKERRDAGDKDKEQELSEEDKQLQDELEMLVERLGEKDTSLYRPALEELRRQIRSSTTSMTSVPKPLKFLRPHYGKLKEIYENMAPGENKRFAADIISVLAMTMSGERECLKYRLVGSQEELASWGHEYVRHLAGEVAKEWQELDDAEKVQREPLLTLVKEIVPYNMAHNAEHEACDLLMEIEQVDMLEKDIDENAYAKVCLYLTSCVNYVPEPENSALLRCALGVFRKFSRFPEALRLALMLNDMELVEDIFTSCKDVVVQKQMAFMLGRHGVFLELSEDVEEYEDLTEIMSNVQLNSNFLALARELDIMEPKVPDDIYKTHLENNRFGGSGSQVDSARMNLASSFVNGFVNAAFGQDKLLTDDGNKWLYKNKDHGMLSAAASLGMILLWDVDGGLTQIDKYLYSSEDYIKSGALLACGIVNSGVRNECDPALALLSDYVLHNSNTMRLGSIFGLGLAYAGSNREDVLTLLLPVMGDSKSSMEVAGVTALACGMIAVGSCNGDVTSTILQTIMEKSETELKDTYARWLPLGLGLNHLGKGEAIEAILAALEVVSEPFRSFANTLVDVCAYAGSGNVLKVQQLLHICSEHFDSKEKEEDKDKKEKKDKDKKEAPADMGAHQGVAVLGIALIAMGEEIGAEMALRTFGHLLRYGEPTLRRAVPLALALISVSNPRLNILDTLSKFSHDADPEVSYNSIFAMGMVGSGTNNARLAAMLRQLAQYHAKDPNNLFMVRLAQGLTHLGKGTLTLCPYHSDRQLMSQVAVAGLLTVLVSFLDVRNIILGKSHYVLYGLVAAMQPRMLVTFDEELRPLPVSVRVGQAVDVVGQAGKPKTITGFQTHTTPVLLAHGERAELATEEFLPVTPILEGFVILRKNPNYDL
UniProt P06737: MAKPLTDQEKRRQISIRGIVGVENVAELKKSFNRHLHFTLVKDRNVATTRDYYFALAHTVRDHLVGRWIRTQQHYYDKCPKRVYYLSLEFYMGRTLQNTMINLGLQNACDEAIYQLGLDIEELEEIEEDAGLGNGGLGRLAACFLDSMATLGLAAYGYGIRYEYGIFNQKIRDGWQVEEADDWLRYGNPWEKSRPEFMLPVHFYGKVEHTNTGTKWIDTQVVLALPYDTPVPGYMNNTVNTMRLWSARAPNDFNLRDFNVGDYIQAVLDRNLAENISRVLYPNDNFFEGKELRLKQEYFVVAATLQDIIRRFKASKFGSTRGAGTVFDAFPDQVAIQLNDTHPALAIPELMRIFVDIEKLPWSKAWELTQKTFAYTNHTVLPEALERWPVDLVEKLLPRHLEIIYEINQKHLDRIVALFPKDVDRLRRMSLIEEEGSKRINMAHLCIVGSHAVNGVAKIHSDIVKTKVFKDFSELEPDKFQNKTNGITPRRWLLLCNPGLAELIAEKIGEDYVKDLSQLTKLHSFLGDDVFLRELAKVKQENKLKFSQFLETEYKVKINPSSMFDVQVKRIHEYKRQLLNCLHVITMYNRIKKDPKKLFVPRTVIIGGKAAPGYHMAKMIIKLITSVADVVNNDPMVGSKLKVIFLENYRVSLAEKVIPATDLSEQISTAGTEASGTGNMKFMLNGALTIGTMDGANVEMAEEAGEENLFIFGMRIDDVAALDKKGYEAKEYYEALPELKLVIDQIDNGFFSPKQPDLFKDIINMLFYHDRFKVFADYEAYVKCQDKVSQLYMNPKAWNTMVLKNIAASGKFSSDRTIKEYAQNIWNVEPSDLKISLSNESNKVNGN
UniProt Q14289, whole entry, looked up: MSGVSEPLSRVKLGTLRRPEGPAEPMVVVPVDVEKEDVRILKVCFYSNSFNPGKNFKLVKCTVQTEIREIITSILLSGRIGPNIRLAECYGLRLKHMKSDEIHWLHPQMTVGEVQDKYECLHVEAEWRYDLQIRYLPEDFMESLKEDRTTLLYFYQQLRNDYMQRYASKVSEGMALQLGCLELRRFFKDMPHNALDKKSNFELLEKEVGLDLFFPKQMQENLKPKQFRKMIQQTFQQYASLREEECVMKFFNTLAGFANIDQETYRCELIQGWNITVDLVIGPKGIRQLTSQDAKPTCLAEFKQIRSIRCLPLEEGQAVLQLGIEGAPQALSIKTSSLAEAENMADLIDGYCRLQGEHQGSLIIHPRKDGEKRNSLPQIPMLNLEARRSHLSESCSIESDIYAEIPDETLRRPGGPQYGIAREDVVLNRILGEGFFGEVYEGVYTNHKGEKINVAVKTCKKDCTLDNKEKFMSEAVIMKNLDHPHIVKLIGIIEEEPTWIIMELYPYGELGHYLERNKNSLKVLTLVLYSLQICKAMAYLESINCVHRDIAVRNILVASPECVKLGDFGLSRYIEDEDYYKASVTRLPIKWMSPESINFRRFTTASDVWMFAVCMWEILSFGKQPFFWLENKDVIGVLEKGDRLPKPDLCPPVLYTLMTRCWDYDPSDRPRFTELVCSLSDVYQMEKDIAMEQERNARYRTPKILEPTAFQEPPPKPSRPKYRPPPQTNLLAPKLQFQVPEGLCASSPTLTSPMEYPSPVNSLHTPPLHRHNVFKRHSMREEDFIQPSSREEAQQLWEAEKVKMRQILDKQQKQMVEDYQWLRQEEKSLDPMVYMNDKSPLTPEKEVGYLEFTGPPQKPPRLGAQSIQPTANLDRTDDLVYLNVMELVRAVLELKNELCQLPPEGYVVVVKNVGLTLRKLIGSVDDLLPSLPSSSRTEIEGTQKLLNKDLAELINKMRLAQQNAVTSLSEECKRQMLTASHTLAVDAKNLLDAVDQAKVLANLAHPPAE
UniProt P35236: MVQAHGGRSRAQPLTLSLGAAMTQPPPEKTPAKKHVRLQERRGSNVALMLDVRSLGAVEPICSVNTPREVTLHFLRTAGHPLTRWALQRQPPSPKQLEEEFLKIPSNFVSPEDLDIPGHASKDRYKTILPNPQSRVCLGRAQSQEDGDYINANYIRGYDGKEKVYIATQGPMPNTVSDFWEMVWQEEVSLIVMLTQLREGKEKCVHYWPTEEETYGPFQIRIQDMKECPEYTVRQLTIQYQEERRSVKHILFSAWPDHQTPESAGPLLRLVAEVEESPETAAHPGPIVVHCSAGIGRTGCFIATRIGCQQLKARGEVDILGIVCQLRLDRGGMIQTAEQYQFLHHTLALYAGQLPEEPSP
UniProt P28072: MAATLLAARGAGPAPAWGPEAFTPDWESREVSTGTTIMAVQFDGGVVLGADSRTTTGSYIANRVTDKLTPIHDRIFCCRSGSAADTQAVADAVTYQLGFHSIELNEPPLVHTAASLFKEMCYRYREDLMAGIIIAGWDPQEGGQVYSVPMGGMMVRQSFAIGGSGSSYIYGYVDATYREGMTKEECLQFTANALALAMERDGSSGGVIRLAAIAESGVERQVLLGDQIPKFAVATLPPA

Legend:
Experiment in all cases: log2 fold change, soluble protein after heating vs DMSO (PISA); higher = thermal stabilisation; K562 cells, 10 uM, 30 min; active = over 0.2 and 3.5 SD of the protein, either way, in both replicates (recomputed)
[1] = compound: CC1=C(C=C(C=C1)NC(=O)C2=CC(=CC=C2)C(C)(C)C#N)NC3=CC4=C(C=C3)N=CN(C4=O)C
In short: (§1)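 For each measurement, 10 μM compound was applied for 30 min to K562 cells at 2×10^6 cells/mL. Aliquots were heated for 3 min across 48°C-58°C, pooled, and extracted in PBS with 0.5% NP-40 at 4°C; the supernatant after 21,000xg for 90 min was soluble protein. This was quantified by TMTpro 16plex LC-MS/MS with channel sums equalised, and thermal stability was reported relative to control samples from duplicates, on a log2 fold-change scale.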

[2] = compound: CC1=C(C=C(C=C1)NC(=O)C2=CC(=CC=C2)N(C)C)NC(=O)C3=CC=C(C=C3)O
In short: as §1

[3] = compound: CC1=NC(=CC=C1)C2=C(N=C(N2)C(C)(C)C)C3=CC4=NC=CN=C4C=C3
In short: as §1

[4] = compound: CCCc1cc(C)[nH]c(=O)c1CNC(=O)c1cc(-c2ccnc(N3CCN(C)CC3)c2)cc2c1cnn2C(C)C
In short: as §1

givinostat = compound: CCN(CC)Cc1ccc2cc(COC(=O)Nc3ccc(C(=O)NO)cc3)ccc2c1 [givinostat]
In short: as §1

[5] = compound: CC[C@@H]1C(=O)N(C)c2cnc(Nc3ccc(C(=O)NC4CCN(C)CC4)cc3OC)nc2N1C1CCCC1
In short: as §1

[6] = compound: CC[C@H](C)N1C=C(C2=C(C=C(C=C21)C3=CN=C(C=C3)N4CCNCC4)C(=O)NCC5=C(C=C(NC5=O)C)C)C
In short: as §1

[7] = compound: CCn1c(C(=O)N(C2CC2)C2CC2)cc2c3c(ncn3C)c(Nc3cc(C)n(C)n3)nc21
In short: as §1

[8] = compound: CC1=CC=C(C=C1)SC2=C3C=C(SC3=CN=C2)C(=O)N
In short: as §1

Nexturastat A = compound: CCCCN(Cc1ccc(C(=O)NO)cc1)C(=O)Nc1ccccc1 [Nexturastat A]
In short: as §1

vemurafenib = compound: CCCS(=O)(=O)Nc1ccc(F)c(C(=O)c2c[nH]c3ncc(-c4ccc(Cl)cc4)cc23)c1F [vemurafenib]
In short: as §1

[9] = compound: CCCS(=O)(=O)Nc1ccc(F)c(C(=O)c2c[nH]c3ncc(Cl)cc23)c1F
In short: as §1

barasertib = compound: CCN(CCCOc1ccc2c(Nc3cc(CC(=O)Nc4cccc(F)c4)[nH]n3)ncnc2c1)CCOP(=O)(O)O [barasertib]
In short: as §1

volasertib = compound: CC[C@@H]1C(=O)N(C)c2cnc(Nc3ccc(C(=O)N[C@H]4CC[C@H](N5CCN(CC6CC6)CC5)CC4)cc3OC)nc2N1C(C)C [volasertib]
In short: as §1

epoxomicin = compound: CC[C@H](C)[C@@H](C(=O)N[C@@H]([C@@H](C)O)C(=O)N[C@@H](CC(C)C)C(=O)[C@]1(CO1)C)NC(=O)[C@H]([C@@H](C)CC)N(C)C(=O)C [epoxomicin]
In short: as §1

[10] = compound: CCn1cc(-c2ccnc3[nH]c(-c4cccc(CN(C)C)c4)cc23)c(-c2ccc(NC(=O)N(C)C)cc2)n1
In short: as §1

[11] = compound: CN(C)CC(=O)Nc1ccc2[nH]c(=O)c3ccccc3c2c1
In short: as §1

rosiglitazone = compound: CN(CCOC1=CC=C(C=C1)C[C@H]2C(=O)NC(=O)S2)C3=CC=CC=N3 (racemic) [rosiglitazone]
In short: as §1

[12] = compound: CN1C2=C(C3=C1C(=O)N(N=C3)CC4=CC(=CC=C4)N)SC(=C2)S(=O)C
In short: as §1

[13] = compound: CN1CCC(CNc2ccc3ncc(-c4cccc(OC(F)(F)F)c4)n3n2)CC1
In short: as §1

Target	log2 fold change [1]	log2 fold change [2]	log2 fold change [3]	log2 fold change [4]	log2 fold change (givinostat)	log2 fold change [5]	log2 fold change [6]	log2 fold change [7]	log2 fold change [8]	log2 fold change (Nexturastat A)	log2 fold change (vemurafenib)	log2 fold change [9]	log2 fold change (barasertib)	log2 fold change (volasertib)	log2 fold change (epoxomicin)	log2 fold change [10]	log2 fold change [11]	log2 fold change (rosiglitazone)	log2 fold change [12]	log2 fold change [13]
PTPN18 (UniProt Q99952)	inactive: 0.115	inactive: -0.071	inactive: 0.237	inactive: 0.005	inactive: 0	inactive: 0.157	inactive: 0.044	inactive: 0.144	–	–	–	–	–	–	–	–	–	–	–	–
PYCR1 isoform 3 (UniProt P32322)	inactive: 0.083	inactive: 0.009	inactive: 0.081	–	inactive: -0.037	inactive: -0.014	inactive: -0.027	inactive: 0.042	inactive: 0.005	inactive: -0.158	inactive: 0.056	inactive: -0.006	inactive: -0.022	inactive: 0.062	inactive: 0.028	inactive: -0.073	inactive: 0.029	inactive: -0.015	inactive: -0.042	inactive: 0.098
PSEN2 (UniProt P49810)	inactive: -0.017	inactive: 0.108	–	inactive: -0.04	inactive: -0.005	–	–	inactive: 0.007	–	–	–	–	–	–	–	inactive: 0.088	–	–	inactive: 0.173	inactive: -0.009
R3HDM1 isoform 2 (UniProt Q15032)	inactive: 0.041	inactive: -0.164	inactive: 0.084	inactive: 0.012	inactive: 0.009	inactive: -0.023	inactive: 0.169	inactive: -0.08	inactive: 0.093	–	inactive: 0.071	inactive: -0.057	inactive: -0.096	inactive: -0.046	–	inactive: 0.086	inactive: 0.037	inactive: 0.032	inactive: -0.034	inactive: -0.255
QRICH1 (UniProt Q2TAL8)	inactive: 0.064	inactive: -0.021	inactive: 0.192	inactive: -0.215	inactive: 0.07	active: -0.464	inactive: 0.07	–	inactive: 0.06	inactive: 0.158	inactive: 0.173	inactive: 0.122	inactive: 0.214	inactive: -0.39	inactive: 0.027	–	inactive: 0.258	–	inactive: 0	–
QKI (UniProt Q96PU8)	inactive: 0.05	inactive: -0.037	inactive: 0.036	inactive: -0.045	inactive: 0.023	inactive: -0.008	inactive: 0.084	–	inactive: 0.019	inactive: -0.109	inactive: 0.033	inactive: 0.084	inactive: -0.003	inactive: -0.1	inactive: 0.049	inactive: 0.023	inactive: 0.034	–	inactive: 0.017	inactive: -0.172
PSMB5 (UniProt P28074)	inactive: 0.077	inactive: 0.02	inactive: -0.004	inactive: 0.037	inactive: -0.037	inactive: 0.045	inactive: -0.013	inactive: 0.019	inactive: 0.005	inactive: 0.026	inactive: -0.016	inactive: 0.017	inactive: -0.058	inactive: 0.091	–	inactive: 0.03	inactive: -0.058	inactive: -0.023	inactive: 0.009	inactive: 0.069
PSEN1 (UniProt P49768)	inactive: -0.05	inactive: -0.013	inactive: 0.032	inactive: -0.093	–	inactive: 0.035	inactive: -0.145	–	inactive: -0.062	inactive: -0.273	inactive: -0.021	inactive: 0.068	inactive: -0.039	inactive: 0.082	inactive: 0.026	–	inactive: -0.011	inactive: 0.164	inactive: 0.116	–
PSMD2 (UniProt Q13200)	inactive: 0.005	inactive: 0.012	inactive: -0.064	inactive: 0.136	inactive: -0.048	inactive: 0.049	inactive: -0.009	–	inactive: -0.025	inactive: 0.024	inactive: -0.091	inactive: -0.014	inactive: -0.057	inactive: 0.089	active: -0.365	inactive: 0.07	inactive: -0.04	–	inactive: 0.021	inactive: 0.055
PTPA (UniProt Q15257)	inactive: 0.001	inactive: -0.01	inactive: 0.014	inactive: -0.046	inactive: -0.005	inactive: -0.007	inactive: -0.012	–	inactive: 0.004	inactive: -0.006	inactive: 0.044	inactive: -0.017	inactive: -0.007	inactive: 0.004	inactive: 0.051	inactive: -0.06	inactive: -0.002	–	inactive: -0.072	inactive: -0.009
PYGL (UniProt P06737)	inactive: -0.105	inactive: 0.011	inactive: 0.006	inactive: -0.015	inactive: 0.012	inactive: -0.091	inactive: 0.008	–	inactive: 0.011	inactive: -0.018	inactive: -0.009	inactive: 0.003	inactive: -0.01	active: -0.262	inactive: -0.02	inactive: 0.016	inactive: -0.001	–	inactive: -0.006	inactive: 0.029
PSD2 (UniProt Q9BQI7)	inactive: 0.054	inactive: -0.063	–	inactive: -0.1	–	–	inactive: -0.237	–	–	inactive: -0.054	inactive: -0.32	–	–	–	inactive: 0.003	–	inactive: -0.033	–	–	–
PTK2B (UniProt Q14289)	inactive: -0.09	inactive: 0	inactive: -0.008	inactive: 0.06	inactive: 0.421	–	inactive: -0.244	–	inactive: 0.06	inactive: 0.217	inactive: -0.129	inactive: 0	inactive: 0.031	active: -1.28	inactive: -0.012	inactive: -0.141	inactive: 0.017	–	inactive: 0.082	inactive: -0.051
PTPA (UniProt A6PVN8)	inactive: 0.062	inactive: -0.128	–	inactive: 0.038	active: -0.857	inactive: 0.051	inactive: -0.03	–	inactive: -0.15	inactive: -0.038	inactive: -0.065	inactive: -0.11	inactive: 0.01	inactive: -0.041	inactive: 0.053	inactive: 0.047	inactive: 0.016	–	inactive: 0.069	inactive: 0.011
PTPN7 isoform 3 (UniProt P35236)	inactive: 0.107	inactive: -0.047	–	–	inactive: -0.119	inactive: 0.1	–	inactive: 0.098	inactive: 0.019	–	inactive: 0.016	inactive: 0.008	–	inactive: -0.275	–	–	inactive: -0.051	–	–	–
PSMB6 (UniProt P28072)	inactive: 0.002	inactive: 0.306	inactive: -0.001	inactive: -0.024	inactive: -0.025	inactive: 0.029	inactive: -0.055	–	inactive: -0.036	inactive: -0.019	inactive: -0.038	inactive: -0.062	inactive: -0.04	inactive: 0.195	active: -0.241	inactive: 0.259	inactive: -0.019	–	inactive: 0.053	inactive: 0.03

Complete entries from above. Order of values: log2 fold change [1]	log2 fold change [2]	log2 fold change [3]	log2 fold change [4]	log2 fold change (givinostat)	log2 fold change [5]	log2 fold change [6]	log2 fold change [7]	log2 fold change [8]	log2 fold change (Nexturastat A)	log2 fold change (vemurafenib)	log2 fold change [9]	log2 fold change (barasertib)	log2 fold change (volasertib)	log2 fold change (epoxomicin)	log2 fold change [10]	log2 fold change [11]	log2 fold change (rosiglitazone)	log2 fold change [12]	log2 fold change [13]
PSMD2 (UniProt Q13200) as listed: inactive: 0.005	inactive: 0.012	inactive: -0.064	inactive: 0.136	inactive: -0.048	inactive: 0.049	inactive: -0.009	–	inactive: -0.025	inactive: 0.024	inactive: -0.091	inactive: -0.014	inactive: -0.057	inactive: 0.089	active: -0.365	inactive: 0.07	inactive: -0.04	–	inactive: 0.021	inactive: 0.055
PYCR1 isoform 3 (UniProt P32322) as listed: inactive: 0.083	inactive: 0.009	inactive: 0.081	–	inactive: -0.037	inactive: -0.014	inactive: -0.027	inactive: 0.042	inactive: 0.005	inactive: -0.158	inactive: 0.056	inactive: -0.006	inactive: -0.022	inactive: 0.062	inactive: 0.028	inactive: -0.073	inactive: 0.029	inactive: -0.015	inactive: -0.042	inactive: 0.098
